Measured values reported in PMC9117333.
Results are given in words; binding and its absence hold for the method and conditions named. In cells and extracts the contact can be indirect. Some binding calls cover weakened binding; strength is not graded here. Where a sequence is shown, tags or fusion partners need not be part of it.

The chains behind the UniProt entries cited, without tags or fusion partners.
UniProt Q02248: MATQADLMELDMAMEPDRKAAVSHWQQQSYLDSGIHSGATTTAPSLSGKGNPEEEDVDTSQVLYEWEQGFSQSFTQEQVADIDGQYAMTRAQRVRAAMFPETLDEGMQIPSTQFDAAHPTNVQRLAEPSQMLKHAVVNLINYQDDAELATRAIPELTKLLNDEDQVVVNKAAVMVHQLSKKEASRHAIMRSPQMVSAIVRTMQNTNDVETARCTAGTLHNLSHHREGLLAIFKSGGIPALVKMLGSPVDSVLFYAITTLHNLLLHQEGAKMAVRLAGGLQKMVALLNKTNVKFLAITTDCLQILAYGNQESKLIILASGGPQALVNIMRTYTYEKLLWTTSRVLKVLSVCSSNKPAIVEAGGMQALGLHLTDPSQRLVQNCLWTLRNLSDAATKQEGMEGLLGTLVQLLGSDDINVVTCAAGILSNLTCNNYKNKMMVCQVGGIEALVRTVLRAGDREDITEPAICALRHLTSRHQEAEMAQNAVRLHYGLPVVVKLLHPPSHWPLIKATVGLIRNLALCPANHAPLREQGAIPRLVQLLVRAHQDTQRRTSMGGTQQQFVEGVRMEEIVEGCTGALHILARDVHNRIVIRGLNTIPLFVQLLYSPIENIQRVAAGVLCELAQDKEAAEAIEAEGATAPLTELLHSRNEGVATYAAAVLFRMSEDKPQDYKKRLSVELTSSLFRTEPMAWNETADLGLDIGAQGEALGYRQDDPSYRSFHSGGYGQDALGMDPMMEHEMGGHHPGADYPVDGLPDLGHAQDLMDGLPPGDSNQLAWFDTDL
UniProt Q8N122: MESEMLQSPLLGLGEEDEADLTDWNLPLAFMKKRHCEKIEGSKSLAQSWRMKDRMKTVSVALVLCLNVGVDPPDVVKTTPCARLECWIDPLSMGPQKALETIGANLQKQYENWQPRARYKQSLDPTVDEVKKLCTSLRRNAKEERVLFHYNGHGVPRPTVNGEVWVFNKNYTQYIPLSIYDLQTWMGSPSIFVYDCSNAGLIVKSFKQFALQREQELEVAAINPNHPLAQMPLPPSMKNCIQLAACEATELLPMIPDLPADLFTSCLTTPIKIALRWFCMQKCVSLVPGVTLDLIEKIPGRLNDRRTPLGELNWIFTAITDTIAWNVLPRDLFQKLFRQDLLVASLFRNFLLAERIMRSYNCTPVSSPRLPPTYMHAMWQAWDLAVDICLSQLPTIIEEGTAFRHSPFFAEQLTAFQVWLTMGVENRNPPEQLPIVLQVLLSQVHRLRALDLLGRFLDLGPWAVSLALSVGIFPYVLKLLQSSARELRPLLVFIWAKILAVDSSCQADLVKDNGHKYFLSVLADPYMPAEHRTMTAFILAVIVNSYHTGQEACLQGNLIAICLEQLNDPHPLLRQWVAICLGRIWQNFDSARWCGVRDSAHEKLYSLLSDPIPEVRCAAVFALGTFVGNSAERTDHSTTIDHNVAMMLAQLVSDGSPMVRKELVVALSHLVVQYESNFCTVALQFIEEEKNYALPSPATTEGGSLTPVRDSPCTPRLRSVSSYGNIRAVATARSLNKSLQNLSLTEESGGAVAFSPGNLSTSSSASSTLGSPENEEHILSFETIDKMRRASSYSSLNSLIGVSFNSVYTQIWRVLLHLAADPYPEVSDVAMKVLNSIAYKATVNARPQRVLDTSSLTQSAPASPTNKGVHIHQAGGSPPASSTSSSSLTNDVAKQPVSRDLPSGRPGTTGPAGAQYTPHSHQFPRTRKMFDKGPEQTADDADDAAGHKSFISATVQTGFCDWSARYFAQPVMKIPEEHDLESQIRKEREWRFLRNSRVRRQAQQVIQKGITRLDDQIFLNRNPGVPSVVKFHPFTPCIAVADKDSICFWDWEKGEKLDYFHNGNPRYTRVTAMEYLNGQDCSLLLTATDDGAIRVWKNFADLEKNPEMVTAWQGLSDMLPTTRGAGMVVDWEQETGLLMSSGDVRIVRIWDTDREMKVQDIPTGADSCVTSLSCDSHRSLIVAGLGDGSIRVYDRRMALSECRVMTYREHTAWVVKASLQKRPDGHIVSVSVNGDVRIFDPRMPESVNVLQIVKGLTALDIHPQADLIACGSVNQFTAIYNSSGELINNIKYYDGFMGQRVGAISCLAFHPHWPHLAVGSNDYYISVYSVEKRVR

What was measured:
Experiment in all cases: co-IP; Neuro2A cells co-transfected with the tagged constructs (3 µg DNA each), lysed after 48 h in RIPA buffer (50 mM Tris/HCl pH 8, 100 mM NaCl, 1 mM EDTA, 0.1% SDS, 1% Nonidet P-40, 0.5% sodium deoxycholate); lysate incubated overnight at 4 °C with antibodies (Flag, GFP or c-myc) bound to protein G-Sepharose, washed with RIPA; western blot; bound protein normalised to total protein and to the immunoprecipitated bait
[1] = target: T1, GFP-LGN (mouse, pEGFP-C1-LGN; coded by the GPSM2 gene) (mouse) (UniProt Q8VDU0)
T1 sequence: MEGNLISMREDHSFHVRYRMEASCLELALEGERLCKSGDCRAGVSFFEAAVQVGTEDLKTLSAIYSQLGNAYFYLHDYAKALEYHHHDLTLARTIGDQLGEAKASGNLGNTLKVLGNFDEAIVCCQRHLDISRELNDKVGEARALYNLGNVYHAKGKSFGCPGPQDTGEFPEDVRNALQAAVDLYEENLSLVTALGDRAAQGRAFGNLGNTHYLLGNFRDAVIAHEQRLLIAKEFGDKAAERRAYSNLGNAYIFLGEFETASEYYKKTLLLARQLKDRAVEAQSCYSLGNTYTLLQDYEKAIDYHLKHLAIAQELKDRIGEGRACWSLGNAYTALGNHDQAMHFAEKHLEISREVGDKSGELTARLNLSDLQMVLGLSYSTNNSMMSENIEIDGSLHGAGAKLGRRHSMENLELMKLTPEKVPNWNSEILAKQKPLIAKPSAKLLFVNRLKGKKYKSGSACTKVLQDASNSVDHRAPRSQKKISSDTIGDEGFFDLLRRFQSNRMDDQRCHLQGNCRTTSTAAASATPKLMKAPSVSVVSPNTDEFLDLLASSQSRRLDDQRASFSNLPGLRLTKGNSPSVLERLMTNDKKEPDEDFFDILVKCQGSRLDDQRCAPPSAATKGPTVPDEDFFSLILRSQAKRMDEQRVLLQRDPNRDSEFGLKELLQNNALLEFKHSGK

[2] = target: GFP-β-catenin (mouse, pEGFP-β-catenin) (mouse) (UniProt Q02248)
[3] = target: HA-Raptor (human, HA-CMV-Raptor) (human) (UniProt Q8N122)

Measured: binding

B1: Flag-DLGAP4 (wild type human Disks large-associated protein 4) (protein, UniProt Q9Y2H0-1 1-989)
chain: MKGLGDSRPRHLSDSLDPPHEPLFAGTDRNPYLLSPTEAFAREARFPGQNTLPGDGLFPLNNQLPPPSSTFPRIHYNSHFEVPEESPFPSHAQATKINRLPANLLDQFEKQLPIHRDGFSTLQFPRGEAKARGESPGRIRHLVHSVQRLFFTKAPSLEGTAGKVGGNGSKKGGMEDGKGRRAKSKERAKAGEPKRRSRSNISGWWSSDDNLDGEAGAFRSSGPASGLMTLGRQAERSQPRYFMHAYNTISGHMLKTTKNNTTELTAPPPPPAPPATCPSLGVGTDTNYVKRGSWSTLTLSHAHEVCQKTSATLDKSLLKSKSCHQGLAYHYLQVPGGGGEWSTTLLSPRETDAAAEGPIPCRRMRSGSYIKAMGDEDSDESGGSPKPSPKTAARRQSYLRATQQSLGEQSNPRRSLDRLDSVDMLLPSKCPSWEEDYTPVSDSLNDSSCISQIFGQASLIPQLFGHEQQVREAELSDQYEAACESACSEAESTAAETLDLPLPSYFRSRSHSYLRAIQAGCSQEEDSVSLQSLSPPPSTGSLSNSRTLPSSSCLVAYKKTPPPVPPRTTSKPFISVTVQSSTESAQDTYLDSQDHKSEVTSQSGLSNSSDSLDSSTRPPSVTRGGVAPAPEAPEPPPKHAALKSEQGTLTSSESHPEAAPKRKLSSIGIQERTRRNGSHLSEDNGPKAIDVMAPSSESSVPSHSMSSRRDTDSDTQDANDSSCKSSERSLPDCTPHPNSISIDAGPRQAPKIAQIKRNLSYGDNSDPALEASSLPPPDPWLETSSSSPAEPAQPGACRRDGYWFLKLLQAETERLEGWCCQMDKETKENNLSEEVLGKVLSAVGSAQLLMSQKFQQFRGLCEQNLNPDANPRPTAQDLAGFWDLLQLSIEDISMKFDELYHLKANSWQLVETPEKRKEEKKPPPPVPKKPAKSKPAVSRDKASDASDKQRQEARKRLLAAKRAASVRQNSATESADSIEIYVPEAQTRL
binds: all assays above
